Assay: general procedure: Fmoc solid-phase peptide synthesis; Chlorotrityl chloride resin; HATU/DIPEA
Conditions: for the 2 steps; for step yield: late stage modification step; for conjugation yield: conjugation step

Which step yield does the source give for “Ac-Trp(Boc)-Lys(-PEG3-N3)-PEG3-Val-Cit-PABC-PNP” here?
Its step yield is 14%.

With Ac-Trp(Boc)-Lys(N3)-Val-Cit-PABC-PNP as the substance, how does the step yield read?
Its step yield is 38%.

Which conjugation yield does the source give for “Ac-Trp-Lys(-PEG3-N3)-PEG3-Val-Cit-PABC-EdDnp” here?
Its conjugation yield is 34%.

Which conjugation yield does the source give for Ac-Trp-Lys(N3)-Val-Cit-PABC-EdDnp here?
Its conjugation yield is 36%.

From US12084403B2 (THE BOARD OF REGENTS OF THE UNIVERSITY OF TEXAS SYSTEM, priority 2017, dated 2024)
